Source: PMC5095787

Columns and labels:
[1] = molecular target: OsGIF1 (GRF-interacting factor 1), yeast two-hybrid fusion (rice); assay: two-hybrid; Matchmaker GAL4 system; pGBKT7 and pGADT7 plasmids cotransformed into yeast strain Y2H Gold; grown on SD-Leu-Trp for 3 days at 30 °C, interaction read on SD-Ade-His-Leu-Trp for 2-3 days at 30 °C
[2] = molecular target: OsGIF1 fused to cYFP for BiFC (rice); assay: split reporter; BiFC: nYFP and cYFP fusions co-expressed in tobacco leaf epidermis cells by Agrobacterium-mediated infiltration; YFP seen by confocal microscopy 72 h after infiltration

B1: GLW2 (OsGRF4, growth-regulating factor 4), yeast two-hybrid fusion (protein, UniProt Q6ZIK5 1-394)
chain: MAMPYASLSPAVADHRSSPAAATASLLPFCRSTPLSAGGGGVAMGEDAPMTARWPPAAAARLPPFTAAQYEELEQQALIYKYLVAGVPVPPDLVLPIRRGLDSLAARFYNHPALGYGPYFGKKLDPEPGRCRRTDGKKWRCSKEAAPDSKYCERHMHRGRNRSRKPVETQLVAQSQPPSSVVGSAAAPLAAASNGSSFQNHSLYPAIAGSNGGGGGRNMPSSFGSALGSQLHMDNAAPYAAVGGGTGKDLRYTAYGTRSLADEQSQLITEAINTSIENPWRLLPSQNSPFPLSSYSQLGALSDLGQNTPSSLSKVQRQPLSFFGNDYAAVDSVKQENQTLRPFFDEWPKGRDSWSDLADENANLSSFSGTQLSISIPMASSDFSAASSRSTNGD
Q: How did the binding [1] turn out when B1 was run?
A: binds

B2: GLW2 (OsGRF4) fused to nYFP for BiFC (protein, UniProt Q6ZIK5 1-394)
chain: B1 chain
Q: Which binding [2] does the source give for B2 here?
A: binds

These are yes or no findings as the source states them, for the method shown. A result given as binding can be weak or reduced; the word gives no strength. Where a sequence is shown, tags or fusion partners need not be part of it. For some assays here: Binding seen in cells or lysates may run through a third protein.
